Experimental findings from US20080044436A1, “Method for Screening and Compositions for Treating Cancers” (priority 2004, published 2008) are described below.

Protein sequences, listed by entry. Tags and fused reporters are not part of them. Residues count along the entry.
UniProt P06401, residues 675-933: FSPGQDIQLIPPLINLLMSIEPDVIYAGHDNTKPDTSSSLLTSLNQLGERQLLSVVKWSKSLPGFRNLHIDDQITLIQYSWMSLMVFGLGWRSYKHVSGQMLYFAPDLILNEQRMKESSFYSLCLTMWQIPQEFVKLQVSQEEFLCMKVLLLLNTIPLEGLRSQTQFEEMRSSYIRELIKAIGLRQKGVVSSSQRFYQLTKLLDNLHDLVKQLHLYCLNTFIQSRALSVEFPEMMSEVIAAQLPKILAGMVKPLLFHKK

Results are given in words; binding and its absence hold for the method and conditions named. Some results given as binding are weak or reduced against the parent protein; the word gives no strength.

The assay addresses GST-LBD PR fusion protein (UniProt P06401). As to the kind of experiment: FRET, RPE-streptavidin on biotinylated NR-box peptide and APC anti-GST on GST-LBD PR.

As for FEAKGDVMVALEMLLLRKPVRLKCH (labelled with biotin (position not given)), the binding entry is reported as “binds”.
Under AVMDGAPDSALRQLLQKPMEPPAPA (labelled with biotin (position not given)) stands “binds”.
